Test results: paper doi:10.1101/2023.12.26.573020
These are yes or no findings as the source states them, for the method shown. Binding calls can cover weak binding; strength is not graded here.

Biological target: TaNF-YC6-B in the bait vector pGBKT7 (yeast two-hybrid) (hexaploid wheat (T. aestivum))
Assay: two-hybrid

- binding: binds
Substance: TaNF-YA3-D in the prey vector pGADT7 (yeast two-hybrid) (from UniProt A0A9R1KIN5)
